Paper PMC10016708
Results are given in words; binding and its absence hold for the method and conditions named. In cells and extracts the contact can be indirect. Some entries that bind do so weakly or less than the wild type.

Chains of the proteins cited; added tags and fusions are not shown. Residues count along the entry.
UniProt P25445, residues 26-335: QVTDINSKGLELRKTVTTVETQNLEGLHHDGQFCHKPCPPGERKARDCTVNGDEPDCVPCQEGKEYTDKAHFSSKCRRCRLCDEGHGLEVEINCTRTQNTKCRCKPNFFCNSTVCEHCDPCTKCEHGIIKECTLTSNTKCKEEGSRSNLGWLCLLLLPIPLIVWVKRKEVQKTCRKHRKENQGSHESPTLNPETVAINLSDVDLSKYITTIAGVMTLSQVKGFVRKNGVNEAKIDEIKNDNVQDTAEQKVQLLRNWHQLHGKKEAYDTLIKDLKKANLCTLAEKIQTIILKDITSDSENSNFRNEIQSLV
UniProt O00220, residues 24-468: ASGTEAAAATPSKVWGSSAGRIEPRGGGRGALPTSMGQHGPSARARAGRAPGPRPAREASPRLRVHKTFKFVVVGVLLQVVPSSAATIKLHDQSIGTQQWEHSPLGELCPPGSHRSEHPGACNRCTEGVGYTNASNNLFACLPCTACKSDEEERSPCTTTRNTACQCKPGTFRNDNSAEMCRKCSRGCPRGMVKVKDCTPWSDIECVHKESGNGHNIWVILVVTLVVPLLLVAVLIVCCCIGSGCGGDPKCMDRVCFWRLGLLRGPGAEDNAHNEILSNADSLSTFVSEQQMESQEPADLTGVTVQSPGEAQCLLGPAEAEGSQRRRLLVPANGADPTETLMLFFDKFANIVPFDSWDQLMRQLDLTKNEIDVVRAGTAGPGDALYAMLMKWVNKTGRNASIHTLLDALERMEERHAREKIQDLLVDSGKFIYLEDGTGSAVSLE

T1: membrane-associated RING-CH-type finger ubiquitin ligase MARCHF8 (human (endogenous in SCC152)) (UniProt Q5T0T0)
T1 sequence: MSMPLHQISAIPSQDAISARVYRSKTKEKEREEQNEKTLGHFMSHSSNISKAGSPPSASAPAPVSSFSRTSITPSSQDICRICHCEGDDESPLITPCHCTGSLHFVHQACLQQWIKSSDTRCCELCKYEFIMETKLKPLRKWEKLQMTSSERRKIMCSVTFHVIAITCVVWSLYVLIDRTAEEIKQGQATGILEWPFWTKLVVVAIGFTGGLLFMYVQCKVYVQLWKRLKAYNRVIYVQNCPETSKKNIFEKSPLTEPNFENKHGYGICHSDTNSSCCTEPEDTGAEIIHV


Legend:
[1] = molecular target: T1, membrane-associated RING-CH-type finger ubiquitin ligase MARCHF8 (human (endogenous in SCC152)); assay: co-IP; endogenous proteins; 1 mg whole-cell lysate (RIPA buffer) of SCC152 cells treated with MG132, incubated overnight at 4°C with protein A/G magnetic beads carrying 5 μg anti-MARCHF8 or anti-FAS antibody; western blot
[2] = molecular target: FAS (human (endogenous in SCC152)) (UniProt P25445); assay: as above

binding [1]	binding [2]	Molecule
binds		TRAIL-R1 (from UniProt O00220 24-468) (receptor)
binds		FAS (from UniProt P25445 26-335) (receptor)
	binds	membrane-associated RING-CH-type finger ubiquitin ligase MARCHF8 (enzyme, UniProt Q5T0T0 1-291) MSMPLHQISAIPSQDAISARVYRSKTKEKEREEQNEKTLGHFMSHSSNISKAGSPPSASAPAPVSSFSRTSITPSSQDICRICHCEGDDESPLITPCHCTGSLHFVHQACLQQWIKSSDTRCCELCKYEFIMETKLKPLRKWEKLQMTSSERRKIMCSVTFHVIAITCVVWSLYVLIDRTAEEIKQGQATGILEWPFWTKLVVVAIGFTGGLLFMYVQCKVYVQLWKRLKAYNRVIYVQNCPETSKKNIFEKSPLTEPNFENKHGYGICHSDTNSSCCTEPEDTGAEIIHV
